Some of the results follow.
compound: COc1cc2ncnc(Nc3ccc(F)c(Cl)c3)c2cc1OCCCN1CCOCC1 [gefitinib]; assay: log2 fold change, soluble protein after heating vs DMSO (PISA); higher = thermal stabilisation; K562 cells, 10 uM, 30 min; active = over 0.2 and 3.5 SD of the protein, either way, in both replicates (recomputed)
Outline: (§1)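 Values are thermal stability changes relative to control samples and are taken from duplicates. They are stated as log2 fold changes. Before quantification by TMTpro 16plex LC-MS/MS with equalised channel sums, K562 cells at 2×10^6 cells/mL were treated with 10 μM compound for 30 min, heated in aliquots for 3 min across 48°C-58°C, pooled, extracted in PBS with 0.5% NP-40 at 4°C, and centrifuged at 21,000xg for 90 min to give the soluble supernatant.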

The chains behind the UniProt entries cited, without tags or fusion partners. Where a name states a change or a piece, a line headed by the entry shows the natural chain unless it says otherwise.
UniProt Q96CD2: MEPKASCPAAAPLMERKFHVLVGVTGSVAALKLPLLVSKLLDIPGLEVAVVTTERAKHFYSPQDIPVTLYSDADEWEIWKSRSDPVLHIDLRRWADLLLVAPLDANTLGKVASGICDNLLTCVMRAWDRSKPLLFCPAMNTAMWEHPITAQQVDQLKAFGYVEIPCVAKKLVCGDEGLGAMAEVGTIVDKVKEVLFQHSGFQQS
UniProt Q9H1D9: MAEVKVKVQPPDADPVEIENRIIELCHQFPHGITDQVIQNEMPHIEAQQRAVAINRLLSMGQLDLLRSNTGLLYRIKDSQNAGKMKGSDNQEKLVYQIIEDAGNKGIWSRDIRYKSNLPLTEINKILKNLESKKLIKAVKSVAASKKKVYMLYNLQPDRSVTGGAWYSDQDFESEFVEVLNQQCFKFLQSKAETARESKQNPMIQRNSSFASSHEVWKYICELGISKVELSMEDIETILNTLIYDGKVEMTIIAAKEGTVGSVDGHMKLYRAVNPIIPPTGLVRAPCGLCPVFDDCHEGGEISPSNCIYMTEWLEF
UniProt Q15181: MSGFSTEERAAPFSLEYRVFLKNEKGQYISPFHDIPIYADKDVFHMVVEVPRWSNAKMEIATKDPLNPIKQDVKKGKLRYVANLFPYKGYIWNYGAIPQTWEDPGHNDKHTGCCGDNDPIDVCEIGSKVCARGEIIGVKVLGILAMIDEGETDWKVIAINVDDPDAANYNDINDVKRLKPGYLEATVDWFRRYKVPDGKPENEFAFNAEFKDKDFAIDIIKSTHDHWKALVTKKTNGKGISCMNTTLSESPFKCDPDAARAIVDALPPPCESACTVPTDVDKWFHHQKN
UniProt P14859: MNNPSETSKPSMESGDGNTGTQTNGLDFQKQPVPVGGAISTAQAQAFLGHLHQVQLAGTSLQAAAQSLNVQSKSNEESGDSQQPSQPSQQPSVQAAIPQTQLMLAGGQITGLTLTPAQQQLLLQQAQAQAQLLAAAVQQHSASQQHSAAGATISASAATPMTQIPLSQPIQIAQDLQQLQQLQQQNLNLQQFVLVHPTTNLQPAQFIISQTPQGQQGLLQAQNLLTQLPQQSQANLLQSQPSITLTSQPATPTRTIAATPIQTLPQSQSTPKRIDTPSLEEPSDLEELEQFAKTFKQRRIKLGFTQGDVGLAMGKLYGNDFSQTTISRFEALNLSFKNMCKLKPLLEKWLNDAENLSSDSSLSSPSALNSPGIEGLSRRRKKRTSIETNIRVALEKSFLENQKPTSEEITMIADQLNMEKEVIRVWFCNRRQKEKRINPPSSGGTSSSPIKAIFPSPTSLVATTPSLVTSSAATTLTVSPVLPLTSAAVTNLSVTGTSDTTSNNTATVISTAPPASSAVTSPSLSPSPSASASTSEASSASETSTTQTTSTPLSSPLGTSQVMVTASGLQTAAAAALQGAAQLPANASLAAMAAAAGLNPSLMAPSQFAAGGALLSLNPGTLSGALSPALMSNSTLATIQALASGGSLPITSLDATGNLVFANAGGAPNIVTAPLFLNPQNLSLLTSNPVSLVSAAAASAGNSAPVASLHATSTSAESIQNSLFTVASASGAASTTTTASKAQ
UniProt P30405: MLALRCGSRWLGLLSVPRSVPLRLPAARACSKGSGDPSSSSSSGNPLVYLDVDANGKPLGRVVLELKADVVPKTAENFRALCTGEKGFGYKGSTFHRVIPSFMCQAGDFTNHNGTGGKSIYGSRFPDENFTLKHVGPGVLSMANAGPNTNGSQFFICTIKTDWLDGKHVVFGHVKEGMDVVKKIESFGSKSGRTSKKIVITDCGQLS
UniProt Q9Y2G5: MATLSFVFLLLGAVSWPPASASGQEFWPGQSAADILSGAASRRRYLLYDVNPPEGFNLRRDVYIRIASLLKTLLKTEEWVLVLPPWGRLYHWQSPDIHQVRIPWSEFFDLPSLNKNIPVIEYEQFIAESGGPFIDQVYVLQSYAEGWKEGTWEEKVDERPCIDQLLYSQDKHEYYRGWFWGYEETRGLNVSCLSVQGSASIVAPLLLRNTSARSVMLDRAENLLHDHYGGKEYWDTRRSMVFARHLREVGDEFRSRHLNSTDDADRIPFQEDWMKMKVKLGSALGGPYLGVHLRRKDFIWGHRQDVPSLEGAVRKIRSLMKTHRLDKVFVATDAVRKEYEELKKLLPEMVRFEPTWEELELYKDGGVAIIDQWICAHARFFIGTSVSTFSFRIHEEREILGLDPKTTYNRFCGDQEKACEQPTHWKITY
UniProt P62937, whole entry, looked up: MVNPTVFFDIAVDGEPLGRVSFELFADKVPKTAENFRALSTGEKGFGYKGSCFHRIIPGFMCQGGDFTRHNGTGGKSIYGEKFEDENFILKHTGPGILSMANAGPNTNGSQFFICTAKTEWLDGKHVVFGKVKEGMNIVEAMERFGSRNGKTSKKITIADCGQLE
UniProt Q9NVS9: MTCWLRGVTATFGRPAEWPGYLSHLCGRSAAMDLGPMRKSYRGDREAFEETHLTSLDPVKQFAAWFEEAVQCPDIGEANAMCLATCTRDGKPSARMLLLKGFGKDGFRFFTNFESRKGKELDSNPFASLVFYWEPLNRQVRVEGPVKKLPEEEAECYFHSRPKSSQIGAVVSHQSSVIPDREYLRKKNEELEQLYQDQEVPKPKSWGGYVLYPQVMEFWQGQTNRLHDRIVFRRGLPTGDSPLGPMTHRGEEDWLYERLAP
UniProt Q9BY77: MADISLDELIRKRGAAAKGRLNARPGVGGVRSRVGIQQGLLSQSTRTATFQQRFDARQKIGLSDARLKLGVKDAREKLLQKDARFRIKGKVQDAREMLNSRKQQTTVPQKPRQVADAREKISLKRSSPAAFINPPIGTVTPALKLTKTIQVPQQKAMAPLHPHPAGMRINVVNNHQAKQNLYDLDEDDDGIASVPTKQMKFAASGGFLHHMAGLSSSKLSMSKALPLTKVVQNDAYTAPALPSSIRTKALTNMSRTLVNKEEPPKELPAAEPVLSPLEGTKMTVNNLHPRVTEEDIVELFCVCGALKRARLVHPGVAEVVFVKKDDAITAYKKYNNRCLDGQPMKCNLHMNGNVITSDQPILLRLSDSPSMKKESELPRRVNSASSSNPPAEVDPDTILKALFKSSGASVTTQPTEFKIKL
UniProt Q6P1K2: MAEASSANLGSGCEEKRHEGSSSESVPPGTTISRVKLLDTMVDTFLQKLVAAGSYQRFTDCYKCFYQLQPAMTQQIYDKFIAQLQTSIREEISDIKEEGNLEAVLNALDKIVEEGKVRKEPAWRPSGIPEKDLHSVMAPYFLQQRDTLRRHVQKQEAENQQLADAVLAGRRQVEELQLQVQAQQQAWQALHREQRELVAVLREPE
UniProt Q9UHN1: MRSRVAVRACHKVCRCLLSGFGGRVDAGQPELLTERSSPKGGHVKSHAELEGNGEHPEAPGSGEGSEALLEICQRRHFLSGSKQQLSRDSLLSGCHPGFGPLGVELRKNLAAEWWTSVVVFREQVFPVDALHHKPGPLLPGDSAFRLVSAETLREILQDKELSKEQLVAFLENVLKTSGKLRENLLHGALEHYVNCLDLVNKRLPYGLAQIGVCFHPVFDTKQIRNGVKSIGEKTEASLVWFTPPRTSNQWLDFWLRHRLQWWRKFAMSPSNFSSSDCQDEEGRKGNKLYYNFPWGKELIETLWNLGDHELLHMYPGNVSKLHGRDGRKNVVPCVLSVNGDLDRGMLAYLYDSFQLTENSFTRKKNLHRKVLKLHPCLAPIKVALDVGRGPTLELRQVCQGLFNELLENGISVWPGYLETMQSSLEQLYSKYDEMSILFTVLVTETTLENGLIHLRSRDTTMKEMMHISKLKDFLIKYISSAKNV
UniProt O60568: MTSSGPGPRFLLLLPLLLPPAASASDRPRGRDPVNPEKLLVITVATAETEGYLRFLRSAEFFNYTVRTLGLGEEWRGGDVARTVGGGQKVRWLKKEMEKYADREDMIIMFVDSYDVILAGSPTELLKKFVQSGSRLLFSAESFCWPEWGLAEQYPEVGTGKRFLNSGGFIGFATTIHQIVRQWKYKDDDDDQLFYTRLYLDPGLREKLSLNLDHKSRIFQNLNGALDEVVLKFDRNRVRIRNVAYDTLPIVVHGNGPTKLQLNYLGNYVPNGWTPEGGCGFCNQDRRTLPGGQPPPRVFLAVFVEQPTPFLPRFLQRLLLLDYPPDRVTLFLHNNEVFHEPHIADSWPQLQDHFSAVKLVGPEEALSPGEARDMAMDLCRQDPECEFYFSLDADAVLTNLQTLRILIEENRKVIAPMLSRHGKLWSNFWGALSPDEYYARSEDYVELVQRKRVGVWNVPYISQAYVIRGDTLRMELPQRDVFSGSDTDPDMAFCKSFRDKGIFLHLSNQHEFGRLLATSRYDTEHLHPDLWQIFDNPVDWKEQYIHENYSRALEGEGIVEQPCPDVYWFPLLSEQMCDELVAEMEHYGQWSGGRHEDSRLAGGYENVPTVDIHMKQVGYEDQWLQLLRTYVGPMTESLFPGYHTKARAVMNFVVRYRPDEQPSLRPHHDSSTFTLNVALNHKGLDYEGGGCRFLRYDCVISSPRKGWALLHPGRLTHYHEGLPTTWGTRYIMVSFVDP
UniProt O15031: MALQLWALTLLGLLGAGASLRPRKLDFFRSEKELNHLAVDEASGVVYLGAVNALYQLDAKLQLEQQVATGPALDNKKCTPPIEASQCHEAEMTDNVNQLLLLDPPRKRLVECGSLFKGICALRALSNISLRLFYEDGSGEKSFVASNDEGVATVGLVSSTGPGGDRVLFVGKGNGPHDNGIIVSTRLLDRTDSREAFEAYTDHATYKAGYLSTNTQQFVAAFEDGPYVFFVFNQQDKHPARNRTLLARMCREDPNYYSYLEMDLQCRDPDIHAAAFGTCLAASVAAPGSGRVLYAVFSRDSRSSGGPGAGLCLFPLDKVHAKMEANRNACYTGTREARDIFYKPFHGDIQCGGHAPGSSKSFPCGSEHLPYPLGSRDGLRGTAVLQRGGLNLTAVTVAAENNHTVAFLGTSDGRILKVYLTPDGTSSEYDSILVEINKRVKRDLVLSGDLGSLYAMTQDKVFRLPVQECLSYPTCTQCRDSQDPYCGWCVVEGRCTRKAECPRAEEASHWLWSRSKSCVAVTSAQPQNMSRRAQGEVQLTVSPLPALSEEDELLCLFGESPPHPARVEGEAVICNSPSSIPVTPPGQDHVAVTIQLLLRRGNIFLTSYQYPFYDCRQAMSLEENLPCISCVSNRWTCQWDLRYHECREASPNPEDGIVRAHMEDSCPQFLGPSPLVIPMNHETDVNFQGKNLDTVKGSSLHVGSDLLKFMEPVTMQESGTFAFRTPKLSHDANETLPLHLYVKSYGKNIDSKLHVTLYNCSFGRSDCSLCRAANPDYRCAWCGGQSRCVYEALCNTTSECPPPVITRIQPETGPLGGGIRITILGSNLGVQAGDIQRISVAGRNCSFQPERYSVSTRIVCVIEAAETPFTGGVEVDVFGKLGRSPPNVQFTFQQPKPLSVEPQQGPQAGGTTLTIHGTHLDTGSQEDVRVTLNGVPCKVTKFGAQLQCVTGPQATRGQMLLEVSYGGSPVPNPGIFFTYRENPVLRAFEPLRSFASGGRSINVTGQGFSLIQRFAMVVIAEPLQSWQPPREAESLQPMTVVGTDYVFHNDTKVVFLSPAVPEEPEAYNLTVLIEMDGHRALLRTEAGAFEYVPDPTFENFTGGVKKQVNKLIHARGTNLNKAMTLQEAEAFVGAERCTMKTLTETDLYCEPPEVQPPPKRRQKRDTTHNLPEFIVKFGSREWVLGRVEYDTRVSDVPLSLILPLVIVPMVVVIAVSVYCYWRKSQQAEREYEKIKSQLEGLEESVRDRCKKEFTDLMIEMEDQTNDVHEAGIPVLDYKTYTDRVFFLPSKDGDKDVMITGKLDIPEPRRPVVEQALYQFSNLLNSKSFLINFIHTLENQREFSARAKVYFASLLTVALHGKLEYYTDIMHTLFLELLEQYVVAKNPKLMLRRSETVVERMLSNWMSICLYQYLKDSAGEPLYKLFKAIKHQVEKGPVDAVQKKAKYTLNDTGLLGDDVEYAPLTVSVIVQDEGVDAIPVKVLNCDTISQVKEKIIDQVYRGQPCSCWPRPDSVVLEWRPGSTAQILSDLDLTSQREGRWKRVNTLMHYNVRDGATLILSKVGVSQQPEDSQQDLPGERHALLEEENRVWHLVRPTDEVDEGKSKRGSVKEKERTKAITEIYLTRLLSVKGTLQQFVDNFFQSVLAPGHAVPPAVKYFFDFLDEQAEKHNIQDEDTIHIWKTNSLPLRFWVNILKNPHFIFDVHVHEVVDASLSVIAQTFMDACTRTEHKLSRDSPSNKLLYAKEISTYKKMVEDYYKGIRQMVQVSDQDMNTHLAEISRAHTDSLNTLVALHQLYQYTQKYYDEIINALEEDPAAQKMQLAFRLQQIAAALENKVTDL

log2 fold change, inactive:
PPCDC (UniProt Q96CD2) -0.034
POLR2H (UniProt P52434) -0.014
POGLUT2 (UniProt Q6UW63) -0.016
POLR3F (UniProt Q9H1D9) 0.026
PPA1 (UniProt Q15181) -0.004
POTEF (UniProt A5A3E0) -0.005
POU2F1 isoform 6 (UniProt P14859) 0.012
PNKD isoform 2 (UniProt Q8N490) 0.03
PPIF (UniProt P30405) 0.041
PPIE (UniProt Q9UNP9) 0.016

compound: COc1cccc2cc(-c3nc([C@H]4CC[C@H](C(=O)O)CC4)n4ncnc(N)c34)[nH]c12; assay: as above
Outline: as §1

log2 fold change, inactive:
POFUT2 (UniProt Q9Y2G5) -0.024
PPIA (UniProt P62937) -0.002
POLR3C (UniProt Q9BUI4) 0.019
POFUT1 (UniProt Q9H488) 0.064
PPM1B (UniProt O75688) -0.002
PPIP5K2 (UniProt O43314) 0.034
PNPO (UniProt Q9NVS9) 0.003
POLDIP3 (UniProt Q9BY77) 0.029
PPFIA1 (UniProt Q13136) -0.076
PMF1 (UniProt Q6P1K2) -0.053
POLG2 (UniProt Q9UHN1) 0.011
PLOD3 (UniProt O60568) -0.061
PLXNB2 (UniProt O15031) 0.053

Not a retest: entries from further up.
log2 fold change, inactive:
PPM1B (UniProt O75688) -0.002
PPIP5K2 (UniProt O43314) 0.034
PNPO (UniProt Q9NVS9) 0.003
POLDIP3 (UniProt Q9BY77) 0.029
PPFIA1 (UniProt Q13136) -0.076
PMF1 (UniProt Q6P1K2) -0.053

From the supplement of paper PMC10849652
